Reference: PubChem BioAssay AID493014 (National Center for Advancing Translational Sciences (NCATS), 2011)
This is one part of the list. These are further read-outs of the screen, such as a control signal, another cell line or another target. No call is given for them. Most of these compounds were active or inconclusive in the main read-out, so they are no random draw. Words in brackets tell the shape of the fitted curve; partial curves, single points and poor fits give uncertain potencies.

Assay: qHTS Assay to Find Inhibitors of Chronic Active B-Cell Receptor Signaling
Conditions: ABC-DLBCL IkBa-CBG/CBR reporter, luminescence ratio (green luciferase fused to IkBa over red control in TMD8 lymphoma cells), 4 h
Method in brief: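 Compounds up to 46 uM were incubated four hours with TMD8 cells whose green CBG68 luciferase is fused to IkappaBalpha; red CBR luminescence normalised the signal, and concentration-effect curves were fitted to fusion, red and ratio data.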

[1] = measured here: CBR red luminescence, cell number
[2] = measured here: IkBa-CBG green luminescence

SMILES	AC50 [1]	AC50 [2]
O=C(Nc1ccc(OCC(=O)N2CCOCC2)cc1)c1cccc(Cl)c1	35.5 µM [rising, single point]	–
O=C(NCCc1ccc(Cl)cc1)C1CCN(C(=O)c2sccc2-n2cccc2)CC1	9.2 µM [falling, single point]	–
O=C(Nc1ccccn1)c1onc2c1CCCC2	13 µM [falling, partial curve]	–
Cc1ccc2c(c1)Oc1ccc(NC(=O)CCl)cc1C(=O)N2	6.31 µM [falling, single point]	22.4 µM [falling, single point]
Cc1nn(CCC(=O)NNC(=S)Nc2ccccc2)c(C)c1Br	–	9.2 µM [falling, partial curve]
Nc1c(C(=O)Nc2ccc3c(c2)OCCO3)nnn1Cc1ccc(Cl)cc1	29.1 µM [rising, single point]	–
O=C(COC(=O)/C=C/c1ccccc1)NNC(=O)c1ccc([N+](=O)[O-])cc1	29.1 µM [rising, single point]	–
NC(N)=NN=C1CCCCCCCCCCC1	35.5 µM [falling, single point]	–
Cc1ccc(-c2cc(-c3cccs3)[nH]n2)c(O)c1	16.4 µM [falling, single point]	–
Cc1c(C(=O)OCC(C)C)[nH]c2c1C(=O)CC(c1cccs1)C2 (stereo not given)	5.17 µM [rising, full curve]	13 µM [falling, partial curve]
CC1=C(C(=O)N2CCOCC2)C(c2cc(C)cs2)NC(=O)N1 (stereo not given)	2.91 µM [rising, partial curve, poor fit]	–
CC1=C(C(=O)Nc2cccc(C(=O)NC3CCCC(C)C3C)c2)SCCO1 (stereo not given)	20 µM [falling, single point]	–
O=C(CCCOc1ccc(Cl)cc1Cl)N/N=C/c1ccccc1	9.2 µM [rising, single point]	–
O=C(Nc1nc(COc2ccccc2)cs1)c1ccccc1F	29.1 µM [falling, single point]	–
COc1cn(-c2ccccc2)nc1C(=O)Nc1ccccc1	22.4 µM [falling, single point]	–
CC(C)Cc1ccc(CN2CCCC(NC(=O)c3ccnn3C)C2)cc1 (stereo not given)	12.6 µM [falling, partial curve]	–
CC1(C)CC(=O)C(=Cc2cn(-c3ccccc3)nc2-c2ccc(Cl)cc2)C(=O)C1	0.708 µM [rising, full curve]	–
COC(=O)CSc1ccc2c(N)c(C(=O)OC)sc2c1	10.3 µM [falling, partial curve, poor fit]	10.3 µM [rising, partial curve, poor fit]
CC(C)c1ccc(-c2c(C#N)c(N)nc3c2CCCCC3)cc1	23.1 µM [falling, single point]	–
CC(OC(=O)Cc1n[nH]c(=O)c2ccccc12)C(=O)Nc1ccc(Cl)cn1 (stereo not given)	11.2 µM [falling, partial curve, poor fit]	–
Cc1cc(C)c2nc(NC(=O)c3cc(C)on3)sc2c1	9.2 µM [falling, partial curve]	–

SMILES	AC50 [1]	AC50 [2]
CN(/N=C/c1cccc(Br)c1)C1=NS(=O)(=O)c2ccccc21	11.2 µM [rising, partial curve, poor fit]	–
Cc1cccc(-n2cnc(C(=O)N/N=C\c3ccc(Br)cc3)c2)n1	29.1 µM [falling, single point]	–
O=C(Nc1ccccc1Br)c1ccc(OC(=S)N2CCOCC2)cc1	1.12 µM [falling, partial curve, poor fit]	–
Cc1ccc(/C=C/C(=O)Nc2ncc(C)s2)o1	14.6 µM [falling, partial curve]	–
Clc1nc(CN2CCCCC2)nc2sc3c(c12)CCC3	28.2 µM [falling, single point]	–
S=C(NCCC1=CCCCC1)Nc1ccccc1	7.08 µM [rising, full curve]	–
O=C(c1ccc(Cl)c(S(=O)(=O)N2CCc3ccccc32)c1)N1CCN(c2ccccc2O)CC1	29.1 µM [falling, single point]	–
CC(C)c1ccc(N2C(=O)N(Cc3ccccc3Cl)c3ccccc3S2(=O)=O)cc1	15.8 µM [falling, partial curve, poor fit]	–
COc1ccc(OC)c(NC(=O)CNC(c2ccccc2)c2ccccc2)c1	0.1 µM [falling, full curve, poor fit]	–
COc1ccc(C2=NOC(COc3ccc4c(C)cc(=O)oc4c3)C2)c(OC)c1 (stereo not given)	1.41 µM [rising, full curve, poor fit]	11.2 µM [falling, partial curve, poor fit]
COc1ccccc1C(=O)NC(=O)COC(=O)C1CC1	32.6 µM [falling, single point]	–
CC(C)[C@H](CO)Nc1nc(NCc2ccc(S(N)(=O)=O)cc2)c2ncn(C(C)C)c2n1	12.6 µM [falling, partial curve, poor fit]	–
Cc1[nH]c2ccc(F)cc2c1CCN(Cc1ccncc1)C(=S)Nc1ccc(F)cc1	17.8 µM [falling, single point]	–
COc1ccc(-c2csc(N3CCSCC3)n2)cc1	35.5 µM [rising, single point]	–
O=[N+]([O-])c1ccc(COc2cccc(CNc3ccc(Br)cc3)c2)cc1	16.4 µM [falling, single point]	–
CC(C)OC(=O)CSc1nc2ccccc2s1	11.6 µM [rising, partial curve, poor fit]	–
CC(=O)Nc1ccc(S(=O)(=O)N(C)S(=O)(=O)c2ccc(F)cc2)cc1	4.47 µM [rising, full curve, poor fit]	–
CN1CCN(C2=C(Cl)C(=O)N(c3ccc(Cl)c(Cl)c3)C2=O)CC1	10 µM [falling, partial curve, poor fit]	–
COC(=O)Cc1c(C)nc2nc(-c3ccc(C)cc3)[nH]n2c1=O	2.31 µM [falling, full curve]	–
O=C(Nc1ccccc1C(=O)OCC(=O)N1CCc2ccccc2C1)c1ccco1	0.794 µM [falling, full curve]	–

No new results follow: entries from further up.
SMILES	AC50 [1]	AC50 [2]
Cc1[nH]c2ccc(F)cc2c1CCN(Cc1ccncc1)C(=S)Nc1ccc(F)cc1	17.8 µM [falling, single point]	–
COc1ccc(-c2csc(N3CCSCC3)n2)cc1	35.5 µM [rising, single point]	–
